Assay results reported in PMC6582535.

Target: T1, Cholecystokinin type B receptor (mouse (endogenous in DRG)) (UniProt P56481)
T1 sequence: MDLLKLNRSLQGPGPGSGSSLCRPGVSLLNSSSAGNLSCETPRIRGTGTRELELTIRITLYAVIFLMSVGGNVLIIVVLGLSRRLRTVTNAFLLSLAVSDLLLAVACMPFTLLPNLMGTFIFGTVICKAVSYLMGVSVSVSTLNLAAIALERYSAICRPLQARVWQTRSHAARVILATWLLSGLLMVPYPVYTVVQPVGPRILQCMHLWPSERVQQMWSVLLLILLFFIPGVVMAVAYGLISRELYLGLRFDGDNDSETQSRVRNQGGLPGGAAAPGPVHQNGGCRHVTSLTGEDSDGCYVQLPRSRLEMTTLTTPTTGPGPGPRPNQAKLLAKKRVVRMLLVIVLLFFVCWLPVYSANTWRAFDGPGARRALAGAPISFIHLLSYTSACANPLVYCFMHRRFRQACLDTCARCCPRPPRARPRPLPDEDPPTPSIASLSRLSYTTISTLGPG
Assay: co-IP; mouse DRG extract (500 μg protein; Tris 20 mM pH 7.4, NaCl 150 mM, EDTA 1 mM, 0.5% Triton, DTT 1 mM) incubated at 4 °C with goat polyclonal anti-CCK-BR, Protein A-Sepharose beads; blots for Gαo or Gαi

G-protein Gαi subunit (mouse (endogenous in DRG))
binding: no binding

Results are given in words; binding and its absence hold for the method and conditions named. Binding seen in cells or lysates may run through a third protein.
